In the supplement of paper PMC12823440, “Inhibitors supercharge kinase turnover through native proteolytic circuits” (Nature, 2025):
Some of the results follow. Hit calls seldom repeat between salt and free forms of one compound.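 Kinases were expressed as nanoluciferase fusions in K562 cells and luminescence was read every 4 h between 2 and 18 h as percent of control, DMSO set to 100% and a positive control to 0%. A time point counts as decreased when the signal drops significantly (2 sigma). The hit call is the authors' own, does not follow from the count of time points alone, and its rule is not shown.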

Amino acid sequences for entries named in this document (tags omitted). A change or cut given only in a name is not applied to a line headed by its entry.
UniProt P49137, whole entry, looked up: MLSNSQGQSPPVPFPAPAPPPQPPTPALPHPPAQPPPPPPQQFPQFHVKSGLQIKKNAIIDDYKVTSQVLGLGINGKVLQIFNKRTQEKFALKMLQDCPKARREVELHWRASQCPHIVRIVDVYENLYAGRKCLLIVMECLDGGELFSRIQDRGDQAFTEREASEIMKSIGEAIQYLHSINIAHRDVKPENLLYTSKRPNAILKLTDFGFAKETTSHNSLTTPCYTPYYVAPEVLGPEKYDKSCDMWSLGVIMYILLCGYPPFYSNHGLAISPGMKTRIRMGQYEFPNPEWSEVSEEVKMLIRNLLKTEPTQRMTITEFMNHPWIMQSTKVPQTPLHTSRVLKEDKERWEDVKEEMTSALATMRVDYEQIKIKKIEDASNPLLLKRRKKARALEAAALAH
UniProt Q9BUB5: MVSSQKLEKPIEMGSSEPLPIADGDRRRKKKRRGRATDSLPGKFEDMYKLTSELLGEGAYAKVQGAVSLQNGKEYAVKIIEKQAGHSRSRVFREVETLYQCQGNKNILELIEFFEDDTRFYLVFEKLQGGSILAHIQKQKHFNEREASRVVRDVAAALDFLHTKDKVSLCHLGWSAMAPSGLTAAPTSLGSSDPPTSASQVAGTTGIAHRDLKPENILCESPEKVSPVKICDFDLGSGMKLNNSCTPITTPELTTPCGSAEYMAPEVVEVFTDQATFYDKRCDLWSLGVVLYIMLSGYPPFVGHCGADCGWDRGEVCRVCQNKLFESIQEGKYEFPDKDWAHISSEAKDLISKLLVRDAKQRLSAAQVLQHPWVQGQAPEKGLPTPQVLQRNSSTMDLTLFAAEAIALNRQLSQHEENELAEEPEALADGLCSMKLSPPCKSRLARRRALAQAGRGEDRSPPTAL
UniProt Q16288, whole entry, looked up: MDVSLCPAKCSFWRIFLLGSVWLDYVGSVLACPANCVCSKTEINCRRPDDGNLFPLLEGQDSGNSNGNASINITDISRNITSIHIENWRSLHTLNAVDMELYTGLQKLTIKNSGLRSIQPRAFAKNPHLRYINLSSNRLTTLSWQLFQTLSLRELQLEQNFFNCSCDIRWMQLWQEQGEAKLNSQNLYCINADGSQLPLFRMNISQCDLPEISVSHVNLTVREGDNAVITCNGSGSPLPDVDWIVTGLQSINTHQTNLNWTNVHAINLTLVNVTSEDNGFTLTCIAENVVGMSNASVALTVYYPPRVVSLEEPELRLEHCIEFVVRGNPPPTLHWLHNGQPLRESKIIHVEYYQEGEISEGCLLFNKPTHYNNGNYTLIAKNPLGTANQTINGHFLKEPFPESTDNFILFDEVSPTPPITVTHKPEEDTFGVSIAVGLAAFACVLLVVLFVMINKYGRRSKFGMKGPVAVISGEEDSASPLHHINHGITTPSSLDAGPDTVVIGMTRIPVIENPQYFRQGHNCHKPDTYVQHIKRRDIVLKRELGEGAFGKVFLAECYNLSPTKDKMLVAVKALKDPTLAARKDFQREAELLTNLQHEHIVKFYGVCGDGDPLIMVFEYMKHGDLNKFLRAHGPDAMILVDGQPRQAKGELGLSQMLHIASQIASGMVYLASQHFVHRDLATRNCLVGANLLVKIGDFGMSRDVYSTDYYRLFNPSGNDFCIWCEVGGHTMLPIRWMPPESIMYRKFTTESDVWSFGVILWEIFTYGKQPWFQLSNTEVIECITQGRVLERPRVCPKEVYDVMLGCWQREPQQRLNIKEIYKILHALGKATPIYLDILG
UniProt O96013: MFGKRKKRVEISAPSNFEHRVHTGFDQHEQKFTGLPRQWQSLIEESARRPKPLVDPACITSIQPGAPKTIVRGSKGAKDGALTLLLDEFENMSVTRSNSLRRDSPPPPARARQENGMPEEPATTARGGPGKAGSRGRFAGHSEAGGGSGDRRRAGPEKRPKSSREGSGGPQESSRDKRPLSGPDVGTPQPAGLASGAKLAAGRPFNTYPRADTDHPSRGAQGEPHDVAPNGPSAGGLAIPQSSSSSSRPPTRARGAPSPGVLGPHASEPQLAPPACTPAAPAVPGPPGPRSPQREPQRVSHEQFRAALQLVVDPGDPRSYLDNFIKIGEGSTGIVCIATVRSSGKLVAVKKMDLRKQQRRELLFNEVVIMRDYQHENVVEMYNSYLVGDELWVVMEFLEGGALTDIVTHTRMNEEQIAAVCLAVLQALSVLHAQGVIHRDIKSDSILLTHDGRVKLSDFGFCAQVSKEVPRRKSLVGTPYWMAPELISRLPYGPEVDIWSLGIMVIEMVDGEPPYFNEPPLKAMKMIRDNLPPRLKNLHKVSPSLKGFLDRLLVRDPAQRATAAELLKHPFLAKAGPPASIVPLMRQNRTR
UniProt Q15118, whole entry, looked up: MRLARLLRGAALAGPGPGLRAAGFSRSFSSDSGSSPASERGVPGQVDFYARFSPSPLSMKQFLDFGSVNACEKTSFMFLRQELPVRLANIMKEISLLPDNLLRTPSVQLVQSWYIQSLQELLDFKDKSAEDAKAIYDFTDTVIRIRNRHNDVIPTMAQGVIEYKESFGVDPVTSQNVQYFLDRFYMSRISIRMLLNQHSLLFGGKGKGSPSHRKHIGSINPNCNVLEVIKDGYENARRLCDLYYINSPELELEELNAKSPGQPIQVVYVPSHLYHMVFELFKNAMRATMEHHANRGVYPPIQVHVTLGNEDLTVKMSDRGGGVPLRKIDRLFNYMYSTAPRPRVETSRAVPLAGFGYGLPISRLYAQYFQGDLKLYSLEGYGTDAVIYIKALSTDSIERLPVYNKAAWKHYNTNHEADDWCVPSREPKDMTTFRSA
UniProt O15530: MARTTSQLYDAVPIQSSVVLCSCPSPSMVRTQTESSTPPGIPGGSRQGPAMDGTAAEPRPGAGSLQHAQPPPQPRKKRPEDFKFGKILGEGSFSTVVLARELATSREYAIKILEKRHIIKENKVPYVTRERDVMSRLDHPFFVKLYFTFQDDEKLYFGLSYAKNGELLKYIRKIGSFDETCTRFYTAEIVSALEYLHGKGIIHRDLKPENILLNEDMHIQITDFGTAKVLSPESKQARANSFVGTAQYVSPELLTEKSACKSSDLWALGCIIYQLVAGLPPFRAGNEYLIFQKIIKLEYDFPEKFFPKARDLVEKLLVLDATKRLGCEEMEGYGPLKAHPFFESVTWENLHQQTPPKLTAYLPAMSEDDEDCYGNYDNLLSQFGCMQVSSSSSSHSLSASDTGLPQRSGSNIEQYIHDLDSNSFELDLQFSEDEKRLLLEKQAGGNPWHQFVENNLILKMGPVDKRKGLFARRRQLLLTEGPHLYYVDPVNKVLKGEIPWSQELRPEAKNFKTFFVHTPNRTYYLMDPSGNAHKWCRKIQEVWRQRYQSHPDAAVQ
UniProt P42356, whole entry, looked up: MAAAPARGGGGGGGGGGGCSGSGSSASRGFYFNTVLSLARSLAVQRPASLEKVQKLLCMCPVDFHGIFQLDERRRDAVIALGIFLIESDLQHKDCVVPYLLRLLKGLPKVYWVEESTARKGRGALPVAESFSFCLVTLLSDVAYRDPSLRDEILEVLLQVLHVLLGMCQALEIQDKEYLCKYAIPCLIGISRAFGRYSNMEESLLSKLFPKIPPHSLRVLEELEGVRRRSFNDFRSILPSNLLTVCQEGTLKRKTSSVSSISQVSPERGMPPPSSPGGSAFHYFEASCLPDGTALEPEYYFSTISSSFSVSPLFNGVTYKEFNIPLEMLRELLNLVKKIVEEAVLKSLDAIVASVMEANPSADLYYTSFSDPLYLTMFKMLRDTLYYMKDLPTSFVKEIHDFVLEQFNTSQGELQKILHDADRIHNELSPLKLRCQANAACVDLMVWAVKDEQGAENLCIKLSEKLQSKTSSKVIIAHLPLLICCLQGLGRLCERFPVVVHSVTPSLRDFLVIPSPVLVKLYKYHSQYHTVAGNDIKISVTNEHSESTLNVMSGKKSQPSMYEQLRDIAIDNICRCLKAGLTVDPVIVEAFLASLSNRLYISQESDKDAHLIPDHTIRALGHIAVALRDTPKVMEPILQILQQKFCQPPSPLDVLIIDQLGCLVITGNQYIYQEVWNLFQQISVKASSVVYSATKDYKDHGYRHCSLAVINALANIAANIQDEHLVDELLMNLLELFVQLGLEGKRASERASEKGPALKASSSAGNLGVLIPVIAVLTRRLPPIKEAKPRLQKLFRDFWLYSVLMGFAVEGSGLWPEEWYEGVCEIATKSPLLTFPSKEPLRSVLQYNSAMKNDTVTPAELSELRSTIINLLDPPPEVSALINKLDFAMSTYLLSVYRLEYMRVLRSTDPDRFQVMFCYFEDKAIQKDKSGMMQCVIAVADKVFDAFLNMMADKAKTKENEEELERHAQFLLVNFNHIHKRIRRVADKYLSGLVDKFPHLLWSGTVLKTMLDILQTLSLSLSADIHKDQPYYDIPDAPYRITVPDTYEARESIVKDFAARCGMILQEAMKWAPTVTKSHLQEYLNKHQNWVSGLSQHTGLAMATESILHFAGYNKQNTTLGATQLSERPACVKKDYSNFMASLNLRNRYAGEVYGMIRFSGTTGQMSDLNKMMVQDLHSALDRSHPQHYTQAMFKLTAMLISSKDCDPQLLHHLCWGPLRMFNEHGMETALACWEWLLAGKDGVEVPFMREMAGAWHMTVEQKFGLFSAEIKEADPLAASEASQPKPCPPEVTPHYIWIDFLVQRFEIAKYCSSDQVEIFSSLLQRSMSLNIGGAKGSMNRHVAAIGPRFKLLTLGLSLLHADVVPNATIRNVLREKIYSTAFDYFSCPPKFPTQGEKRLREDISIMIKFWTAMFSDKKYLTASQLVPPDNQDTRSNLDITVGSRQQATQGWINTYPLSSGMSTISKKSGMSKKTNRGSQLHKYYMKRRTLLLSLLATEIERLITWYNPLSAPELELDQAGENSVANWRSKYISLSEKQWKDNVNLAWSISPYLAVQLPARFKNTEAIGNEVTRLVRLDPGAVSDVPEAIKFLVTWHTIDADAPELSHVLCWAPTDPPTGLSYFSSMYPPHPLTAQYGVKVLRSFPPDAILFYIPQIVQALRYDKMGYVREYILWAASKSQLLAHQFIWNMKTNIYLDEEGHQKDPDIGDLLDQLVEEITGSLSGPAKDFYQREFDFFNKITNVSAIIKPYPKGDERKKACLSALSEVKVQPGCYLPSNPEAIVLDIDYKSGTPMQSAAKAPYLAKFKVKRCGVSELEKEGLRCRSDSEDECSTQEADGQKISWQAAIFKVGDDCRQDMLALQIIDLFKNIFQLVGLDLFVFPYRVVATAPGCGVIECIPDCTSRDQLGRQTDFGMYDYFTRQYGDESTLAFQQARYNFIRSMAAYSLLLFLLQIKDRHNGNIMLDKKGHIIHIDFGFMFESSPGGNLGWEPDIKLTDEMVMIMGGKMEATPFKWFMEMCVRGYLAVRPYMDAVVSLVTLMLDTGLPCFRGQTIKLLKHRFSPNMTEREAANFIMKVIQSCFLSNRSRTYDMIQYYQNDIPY
UniProt P53350, whole entry: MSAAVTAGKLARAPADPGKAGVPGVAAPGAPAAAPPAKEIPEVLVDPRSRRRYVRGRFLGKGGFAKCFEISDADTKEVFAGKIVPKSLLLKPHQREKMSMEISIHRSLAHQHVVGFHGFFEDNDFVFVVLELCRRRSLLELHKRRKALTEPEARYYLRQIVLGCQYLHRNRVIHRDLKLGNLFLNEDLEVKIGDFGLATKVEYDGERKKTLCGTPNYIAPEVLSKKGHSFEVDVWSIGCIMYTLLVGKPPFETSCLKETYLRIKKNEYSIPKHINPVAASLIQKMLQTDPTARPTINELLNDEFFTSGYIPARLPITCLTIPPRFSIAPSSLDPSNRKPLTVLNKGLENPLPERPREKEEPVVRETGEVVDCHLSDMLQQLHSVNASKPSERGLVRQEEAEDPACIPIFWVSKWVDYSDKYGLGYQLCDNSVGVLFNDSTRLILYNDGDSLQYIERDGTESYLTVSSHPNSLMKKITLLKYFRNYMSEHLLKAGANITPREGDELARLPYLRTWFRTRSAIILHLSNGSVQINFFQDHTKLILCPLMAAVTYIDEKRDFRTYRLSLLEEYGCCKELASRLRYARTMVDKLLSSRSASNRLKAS
UniProt Q13131: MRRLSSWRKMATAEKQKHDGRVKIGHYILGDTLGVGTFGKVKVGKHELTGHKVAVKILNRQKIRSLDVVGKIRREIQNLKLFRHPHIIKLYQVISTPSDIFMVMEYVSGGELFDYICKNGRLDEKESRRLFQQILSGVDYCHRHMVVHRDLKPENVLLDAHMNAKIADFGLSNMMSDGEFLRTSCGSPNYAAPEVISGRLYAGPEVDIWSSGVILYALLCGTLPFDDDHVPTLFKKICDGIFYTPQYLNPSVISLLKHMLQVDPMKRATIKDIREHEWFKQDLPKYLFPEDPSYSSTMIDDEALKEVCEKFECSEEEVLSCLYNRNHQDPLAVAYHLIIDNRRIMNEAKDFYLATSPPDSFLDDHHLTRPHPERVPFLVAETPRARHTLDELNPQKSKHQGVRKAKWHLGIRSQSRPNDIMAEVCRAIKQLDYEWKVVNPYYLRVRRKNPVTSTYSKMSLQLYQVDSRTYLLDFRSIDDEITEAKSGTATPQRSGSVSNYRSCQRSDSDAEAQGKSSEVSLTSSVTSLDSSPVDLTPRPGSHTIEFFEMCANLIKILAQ

How the values were obtained:
Assay in all cases: kinase-Nluc reporter destabilization hit call (1 = scored as downregulated) (binary); higher = compound decreases kinase abundance
Settings in all cases: K562; 2-18 h
MAPK1 = MAPK1 (UniProt P28482)
MAPK4 = MAPK4 (UniProt P31152)
MAPKAPK2 = MAPKAPK2 (UniProt P49137)
MKNK1 = MKNK1 (UniProt Q9BUB5)
NTRK2 = NTRK2 (UniProt Q16620)
NTRK3 = NTRK3 (UniProt Q16288)
PAK4 = PAK4 (UniProt O96013)
PBK = PBK (UniProt Q96KB5)
PDGFRB = PDGFRB (UniProt P09619)
PDK1 = PDK1 (UniProt Q15118)
PDPK1 = PDPK1 (UniProt O15530)
PIK4CA = PIK4CA (UniProt P42356)
PIK4CB = PIK4CB (UniProt Q9UBF8)
PLK1 = PLK1 (UniProt P53350)
PRKAA1 = PRKAA1 (UniProt Q13131)
PRKCA = PRKCA (UniProt P17252)
PTK2 = PTK2 (UniProt Q05397)
PTK2B = PTK2B (UniProt Q14289)
RAF1 = RAF1 (UniProt P04049)
[1] = molecular target: RAF1_S257L (clone: RAF1_mut) (UniProt P04049)

Measured: kinase-Nluc reporter destabilization hit call

CCN(CC)c1ccc2cc(-c3nc4cc(C)ccc4o3)c(=O)oc2c1 (10 µM)
inactive: MAPK1 = 0 | MAPK4 = 0 | MAPKAPK2 = 0 | MKNK1 = 0 | NTRK2 = 0 | NTRK3 = 0 | PAK4 = 0 | PBK 0 | PDGFRB 0 | PDK1 = 0 | PDPK1 = 0 | PIK4CA 0 | PIK4CB 0 | PLK1 = 0 | PRKAA1 = 0 | PRKCA 0 | PTK2 = 0 | PTK2B 0 | RAF1 = 0 | [1] 0

Cc1ccc(Oc2nc3cc(-c4ccc(-c5ccccc5)cc4)c(Cl)cc3[nH]2)cc1C(=O)O (10 µM)
inactive: MAPK1 = 0 | MAPK4 = 0 | MAPKAPK2 = 0 | MKNK1 = 0 | NTRK2 = 0 | NTRK3 = 0 | PAK4 = 0 | PBK 0 | PDGFRB 0 | PDK1 = 0 | PDPK1 = 0 | PIK4CA 0 | PIK4CB 0 | PLK1 = 0 | PRKAA1 = 0 | PRKCA 0 | PTK2 = 0 | PTK2B 0 | RAF1 = 0 | [1] 0

FC(F)(F)c1ccc(/C=C/c2nc(COc3ccc(CCCCn4ccnn4)cc3)co2)cc1 [Mubritinib] (10 µM)
inactive: MAPK1 = 0 | MAPK4 = 0 | MAPKAPK2 = 0 | MKNK1 = 0 | NTRK2 = 0 | NTRK3 = 0 | PAK4 = 0 | PBK 0 | PDGFRB 0 | PDK1 = 0 | PDPK1 = 0 | PIK4CA 0 | PIK4CB 0 | PLK1 = 0 | PRKAA1 = 0 | PRKCA 0 | PTK2 = 0 | PTK2B 0 | RAF1 = 0 | [1] 0

O[C@@H]1CO[C@H]2[C@@H]1OC[C@H]2Oc1nc2nc(-c3ccc(-c4ccccc4)cc3)c(Cl)cc2[nH]1 (10 µM)
inactive: MAPK1 = 0 | MAPK4 = 0 | MAPKAPK2 = 0 | MKNK1 = 0 | NTRK2 = 0 | NTRK3 = 0 | PAK4 = 0 | PBK 0 | PDGFRB 0 | PDK1 = 0 | PDPK1 = 0 | PIK4CA 0 | PIK4CB 0 | PLK1 = 0 | PRKAA1 = 0 | PRKCA 0 | PTK2 = 0 | PTK2B 0 | RAF1 = 0 | [1] 0

COc1ccc(S(=O)(=O)NCc2ccc(C(=O)NCCc3ccc(Cl)cn3)cc2)cc1 (10 µM)
inactive: MAPK1 = 0 | MAPK4 = 0 | MAPKAPK2 = 0 | MKNK1 = 0 | NTRK2 = 0 | NTRK3 = 0 | PAK4 = 0 | PBK 0 | PDGFRB 0 | PDK1 = 0 | PDPK1 = 0 | PIK4CA 0 | PIK4CB 0 | PLK1 = 0 | PRKAA1 = 0 | PRKCA 0 | PTK2 = 0 | PTK2B 0 | RAF1 = 0 | [1] 0

C=CC(=O)Nc1cccc(CNc2nc(Nc3ccc(N4CCN(C)CC4)cc3OC)ncc2Cl)c1 (10 µM)
inactive: MAPK1 = 0 | MAPK4 = 0 | MAPKAPK2 = 0 | MKNK1 = 0 | NTRK2 = 0 | NTRK3 = 0 | PAK4 = 0 | PBK 0 | PDGFRB 0 | PDK1 = 0 | PDPK1 = 0 | PIK4CA 0 | PIK4CB 0 | PLK1 = 0 | PRKAA1 = 0 | PRKCA 0 | PTK2 = 0 | PTK2B 0 | RAF1 = 0 | [1] 0

Two entries drawn at random from those above, as already listed:
C=CC(=O)Nc1cccc(CNc2nc(Nc3ccc(N4CCN(C)CC4)cc3OC)ncc2Cl)c1 (10 µM)
inactive: MAPK1 = 0 | MAPK4 = 0 | MAPKAPK2 = 0 | MKNK1 = 0 | NTRK2 = 0 | NTRK3 = 0 | PAK4 = 0 | PBK 0 | PDGFRB 0 | PDK1 = 0 | PDPK1 = 0 | PIK4CA 0 | PIK4CB 0 | PLK1 = 0 | PRKAA1 = 0 | PRKCA 0 | PTK2 = 0 | PTK2B 0 | RAF1 = 0 | [1] 0

Cc1ccc(Oc2nc3cc(-c4ccc(-c5ccccc5)cc4)c(Cl)cc3[nH]2)cc1C(=O)O (10 µM)
inactive: MAPK1 = 0 | MAPK4 = 0 | MAPKAPK2 = 0 | MKNK1 = 0 | NTRK2 = 0 | NTRK3 = 0 | PAK4 = 0 | PBK 0 | PDGFRB 0 | PDK1 = 0 | PDPK1 = 0 | PIK4CA 0 | PIK4CB 0 | PLK1 = 0 | PRKAA1 = 0 | PRKCA 0 | PTK2 = 0 | PTK2B 0 | RAF1 = 0 | [1] 0

More compounds

Nc1c(C(=O)NCc2ccc(C(=O)NCCCC3CCCCC3)cc2)cnn1-c1ccccc1 (2.5 µM)
inactive: MAPK1 = 0 | MAPK4 = 0 | MAPKAPK2 = 0 | MKNK1 = 0 | NTRK2 = 0 | NTRK3 = 0 | PAK4 = 0 | PBK 0 | PDGFRB 0 | PDK1 = 0 | PDPK1 = 0 | PIK4CA 0 | PIK4CB 0 | PLK1 = 0 | PRKAA1 = 0 | PRKCA 0 | PTK2 = 0 | PTK2B 0 | RAF1 = 0 | [1] 0

COc1cc2ncnc(-n3nc(-c4ccccn4)nc3N)c2cc1OC (10 µM)
inactive: MAPK1 = 0 | MAPK4 = 0 | MAPKAPK2 = 0 | MKNK1 = 0 | NTRK2 = 0 | NTRK3 = 0 | PAK4 = 0 | PBK 0 | PDGFRB 0 | PDK1 = 0 | PDPK1 = 0 | PIK4CA 0 | PIK4CB 0 | PLK1 = 0 | PRKAA1 = 0 | PRKCA 0 | PTK2 = 0 | PTK2B 0 | RAF1 = 0 | [1] 0

COc1ccc(N=Nc2c(N)n[nH]c2N)cc1 (10 µM)
inactive: MAPK1 = 0 | MAPK4 = 0 | MAPKAPK2 = 0 | MKNK1 = 0 | NTRK2 = 0 | NTRK3 = 0 | PAK4 = 0 | PBK 0 | PDGFRB 0 | PDK1 = 0 | PDPK1 = 0 | PIK4CA 0 | PIK4CB 0 | PLK1 = 0 | PRKAA1 = 0 | PRKCA 0 | PTK2 = 0 | PTK2B 0 | RAF1 = 0 | [1] 0

Cc1cccc(-c2[nH]c(C(C)(C)C)nc2-c2ccc3nccnc3c2)n1 (10 µM)
inactive: MAPK1 = 0 | MAPK4 = 0 | MAPKAPK2 = 0 | MKNK1 = 0 | NTRK2 = 0 | NTRK3 = 0 | PAK4 = 0 | PBK 0 | PDGFRB 0 | PDK1 = 0 | PDPK1 = 0 | PIK4CA 0 | PIK4CB 0 | PLK1 = 0 | PRKAA1 = 0 | PRKCA 0 | PTK2 = 0 | PTK2B 0 | RAF1 = 0 | [1] 0

C=CCc1ccc(O)c(-c2ccc(O)c(CC=C)c2)c1 [Honokiol] (10 µM)
inactive: MAPK1 = 0 | MAPK4 = 0 | MAPKAPK2 = 0 | MKNK1 = 0 | NTRK2 = 0 | NTRK3 = 0 | PAK4 = 0 | PBK 0 | PDGFRB 0 | PDK1 = 0 | PDPK1 = 0 | PIK4CA 0 | PIK4CB 0 | PLK1 = 0 | PRKAA1 = 0 | PRKCA 0 | PTK2 = 0 | PTK2B 0 | RAF1 = 0 | [1] 0

Cc1ccc2c(Nc3cccc(Cl)c3F)nccc2c1NC(=O)c1csc2c(N)ncnc12 [Belvarafenib] (10 µM)
inactive: MAPK1 = 0 | MAPK4 = 0 | MAPKAPK2 = 0 | MKNK1 = 0 | NTRK2 = 0 | NTRK3 = 0 | PAK4 = 0 | PBK 0 | PDGFRB 0 | PDK1 = 0 | PDPK1 = 0 | PIK4CA 0 | PIK4CB 0 | PLK1 = 0 | PRKAA1 = 0 | PRKCA 0 | PTK2 = 0 | PTK2B 0 | RAF1 = 0 | [1] 0

CCN(CC)c1cc2oc(=O)c(-c3nc4ccccc4o3)cc2cc1C (2.5 µM)
inactive: MAPK1 = 0 | MAPK4 = 0 | MAPKAPK2 = 0 | MKNK1 = 0 | NTRK2 = 0 | NTRK3 = 0 | PAK4 = 0 | PBK 0 | PDGFRB 0 | PDK1 = 0 | PDPK1 = 0 | PIK4CA 0 | PIK4CB 0 | PLK1 = 0 | PRKAA1 = 0 | PRKCA 0 | PTK2 = 0 | PTK2B 0 | RAF1 = 0 | [1] 0

O=C(Nc1cccc(Nc2ncc(Br)c(NCCc3cnc[nH]3)n2)c1)N1CCCC1 (10 µM)
inactive: MAPK1 = 0 | MAPK4 = 0 | MAPKAPK2 = 0 | MKNK1 = 0 | NTRK2 = 0 | NTRK3 = 0 | PAK4 = 0 | PBK 0 | PDGFRB 0 | PDK1 = 0 | PDPK1 = 0 | PIK4CA 0 | PIK4CB 0 | PLK1 = 0 | PRKAA1 = 0 | PRKCA 0 | PTK2 = 0 | PTK2B 0 | RAF1 = 0 | [1] 0

CCCCCCCC/C=C\CCCCCCCCCCCC(=O)O [Erucic acid] (10 µM)
inactive: MAPK1 = 0 | MAPK4 = 0 | MAPKAPK2 = 0 | MKNK1 = 0 | NTRK2 = 0 | NTRK3 = 0 | PAK4 = 0 | PBK 0 | PDGFRB 0 | PDK1 = 0 | PDPK1 = 0 | PIK4CA 0 | PIK4CB 0 | PLK1 = 0 | PRKAA1 = 0 | PRKCA 0 | PTK2 = 0 | PTK2B 0 | RAF1 = 0 | [1] 0

CN(C)c1nc2c(Br)c(Br)c(Br)c(Br)c2[nH]1 (10 µM)
inactive: MAPK1 = 0 | MAPK4 = 0 | MAPKAPK2 = 0 | MKNK1 = 0 | NTRK2 = 0 | NTRK3 = 0 | PAK4 = 0 | PBK 0 | PDGFRB 0 | PDK1 = 0 | PDPK1 = 0 | PIK4CA 0 | PIK4CB 0 | PLK1 = 0 | PRKAA1 = 0 | PRKCA 0 | PTK2 = 0 | PTK2B 0 | RAF1 = 0 | [1] 0

CNC(=O)c1ccccc1Oc1nc(Nc2cc(OC)c(OC)c(OC)c2)ncc1Br (2.5 µM)
inactive: MAPK1 = 0 | MAPK4 = 0 | MAPKAPK2 = 0 | MKNK1 = 0 | NTRK2 = 0 | NTRK3 = 0 | PAK4 = 0 | PBK 0 | PDGFRB 0 | PDK1 = 0 | PDPK1 = 0 | PIK4CA 0 | PIK4CB 0 | PLK1 = 0 | PRKAA1 = 0 | PRKCA 0 | PTK2 = 0 | PTK2B 0 | RAF1 = 0 | [1] 0

C=CC(=O)Nc1cc(Nc2nccc(-n3cc(CN(C)C)c(-c4ccccc4)n3)n2)c(OC)cc1N1CCOCC1 [Lazertinib] (10 µM)
inactive: MAPK1 = 0 | MAPK4 = 0 | MAPKAPK2 = 0 | MKNK1 = 0 | NTRK2 = 0 | NTRK3 = 0 | PAK4 = 0 | PBK 0 | PDGFRB 0 | PDK1 = 0 | PDPK1 = 0 | PIK4CA 0 | PIK4CB 0 | PLK1 = 0 | PRKAA1 = 0 | PRKCA 0 | PTK2 = 0 | PTK2B 0 | RAF1 = 0 | [1] 0
